Results published in PMC10646984 (Biomacromolecules, 2023).
Results are given in words; binding and its absence hold for the method and conditions named. Some entries that bind do so weakly or less than the wild type.

Sequences of proteins named here, by UniProt entry; tags and fusion partners are left off.
UniProt P17931: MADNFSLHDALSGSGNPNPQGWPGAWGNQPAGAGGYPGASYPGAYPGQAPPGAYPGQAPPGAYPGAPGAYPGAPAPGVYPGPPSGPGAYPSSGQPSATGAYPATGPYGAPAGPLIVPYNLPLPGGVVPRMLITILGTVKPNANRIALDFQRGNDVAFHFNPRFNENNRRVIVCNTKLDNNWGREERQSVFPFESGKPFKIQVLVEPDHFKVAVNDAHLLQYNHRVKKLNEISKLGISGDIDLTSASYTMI

Target: T1, asialofetuin (ASF; a glycoprotein terminated with LacNAc moieties) (UniProt P12763)
T1 sequence (chain, glycoprotein terminated with LacNAc moieties (desialylated glycans)): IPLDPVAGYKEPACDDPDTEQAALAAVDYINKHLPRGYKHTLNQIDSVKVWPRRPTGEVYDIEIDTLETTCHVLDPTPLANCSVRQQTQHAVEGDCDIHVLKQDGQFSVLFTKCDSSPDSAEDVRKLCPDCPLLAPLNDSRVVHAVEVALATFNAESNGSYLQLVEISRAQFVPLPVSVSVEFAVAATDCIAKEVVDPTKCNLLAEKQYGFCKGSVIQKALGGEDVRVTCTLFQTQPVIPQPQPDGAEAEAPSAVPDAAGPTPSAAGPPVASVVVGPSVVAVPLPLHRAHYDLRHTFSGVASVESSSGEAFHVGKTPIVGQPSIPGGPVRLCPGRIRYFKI
Assay: ELISA; competitive: ASF (0.1 μM in PBS) coated on the plate; galectin ([…] Gal-1 and Gal-3, 1 μM Gal-8 and Gal-9) incubated 2 h with serial dilutions of lactose or Lac-CS-DDMs in EPBS with 10% DMSO; residual bound galectin detected with anti-His antibody-HRP; both purified

## Recombinant human galectin-3 (Gal-3), N-terminal His-tagged (from UniProt P17931 1-250)
  binding: binds

B1: Recombinant human galectin-8 (Gal-8) with a full-length peptide linker of 34 aa, N-terminal His-tagged (natural protein, UniProt O00214 1-317, looked up)
chain: MMLSLNNLQNIIYNPVIPFVGTIPDQLDPGTLIVIRGHVPSDADRFQVDLQNGSSMKPRADVAFHFNPRFKRAGCIVCNTLINEKWGREEITYDTPFKREKSFEIVIMVLKDKFQVAVNGKHTLLYGHRIGPEKIDTLGIYGKVNIHSIGFSFSSDLQSTQASSLELTEISRENVPKSGTPQLRLPFAARLNTPMGPGRTVVVKGEVNANAKSFNVDLLAGKSKDIALHLNPRLNIKAFVRNSFLQESWGEEERNITSFPFSPGMYFEMIIYCDVREFKVAVNGVHSLEYKHRFKELSSIDTLEINGDIHLLEVRSW
notes: galectin-8 (tandem repeat), human; contains a full-length peptide linker of 34 aa (3717 Da); ca. 36 kDa; cloned in pET-Duet1 (AscI/NotI); plasmid a gift from Prof; L. Elling; source: E. coli Rosetta 2(DE3)pLysS, purified (Ni-NTA); not shown: His tag, N-terminal, kept
  binding: binds
